## Cleaved PARP after 72 h of treatment

From a melanoma drug combination screen (doi:10.1371/journal.pone.0140310); values rounded.

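Human melanoma cells were exposed to two drugs together for 72 h in 1,536-well plates and read by automated microscopy after fixing and staining. Values are the share of nuclei positive for cleaved PARP as a percentage of the same share in the DMSO control: 100 is the control level, higher means more apoptosis. Concentrations were fixed for each drug; these are the higher of two levels. No replicate spread is given; individual values may be noisy. Basal and induced levels differ widely between cell lines.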
An unselected part of the screen is shown.

Compounds and concentrations:
lestaurtinib, 0.02 µM: C[C@]12O[C@H](C[C@]1(O)CO)n1c3ccccc3c3c4c(c5c6ccccc6n2c5c31)CNC4=O
AS-252424, 5 µM: O=C1NC(=O)/C(=C/c2ccc(-c3ccc(F)cc3O)o2)S1
GSK650394, 0.8 µM: O=C(O)c1ccc(-c2c[nH]c3ncc(-c4ccccc4)cc23)cc1C1CCCC1
tanespimycin, 0.01 µM: C=CCNC1=C2C[C@@H](C)C[C@H](OC)[C@H](O)[C@@H](C)/C=C(\C)[C@H](OC(N)=O)[C@@H](OC)/C=C\C=C(/C)C(=O)NC(=CC1=O)C2=O
darinaparsin, 2 µM: C[As](C)SC[C@H](NC(=O)CC[C@H](N)C(=O)O)C(=O)NCC(=O)O
FK866, 0.05 µM: O=C(/C=C/c1cccnc1)NCCCCC1CCN(C(=O)c2ccccc2)CC1
pazopanib, 2 µM: Cc1ccc(Nc2nccc(N(C)c3ccc4c(C)n(C)nc4c3)n2)cc1S(N)(=O)=O
fingolimod, 10 µM: CCCCCCCCc1ccc(CCC(N)(CO)CO)cc1
SNS-314, 0.004 µM: O=C(Nc1cccc(Cl)c1)Nc1ncc(CCNc2ncnc3ccsc23)s1

Results for SNS-314 + FK866 are MeWo: 153; A101D: 58.9; WM3619: 144; RVH-421: 84.3; UACC-62: 84.0. For darinaparsin + FK866 the values were MeWo: 337; A101D: 181; WM3619: 103; RVH-421: 404; UACC-62: 241. fingolimod + darinaparsin gave MeWo: 995; A101D: 2800; WM3619: 753; RVH-421: 5280; UACC-62: 151. Results for SNS-314 + pazopanib are MeWo: 209; A101D: 75.0; WM3619: 376; RVH-421: 124; UACC-62: 136. For lestaurtinib + AS-252424 the values were MeWo: 94.7; A101D: 68.0; WM3619: 107; RVH-421: 145; UACC-62: 125.

With fingolimod + pazopanib the screen read MeWo: 629; A101D: 1780; WM3619: 4250; RVH-421: 842; UACC-62: 202. SNS-314 + lestaurtinib gave MeWo: 237; A101D: 89.8; WM3619: 129; RVH-421: 175; UACC-62: 124. For darinaparsin + pazopanib the values were MeWo: 102; A101D: 39.7; WM3619: 109; RVH-421: 75.7; UACC-62: 218. With FK866 + tanespimycin the screen read MeWo: 192; A101D: 176; WM3619: 222; RVH-421: 344; UACC-62: 209. With SNS-314 + fingolimod the screen read MeWo: 359; A101D: 2070; WM3619: 1690; RVH-421: 103; UACC-62: 185.

For AS-252424 + GSK650394 the values were MeWo: 116; A101D: 219; WM3619: 142; RVH-421: 59.2; UACC-62: 60.7. With lestaurtinib + FK866 the screen read MeWo: 111; A101D: 85.4; WM3619: 131; RVH-421: 534; UACC-62: 97.4. For pazopanib + AS-252424 the values were MeWo: 68.4; A101D: 90.0; WM3619: 116; RVH-421: 94.7; UACC-62: 157. With pazopanib + FK866 the screen read MeWo: 83.3; A101D: 98.1; WM3619: 159; RVH-421: 776; UACC-62: 177. For lestaurtinib + pazopanib the values were MeWo: 84.8; A101D: 112; WM3619: 125; RVH-421: 67.9; UACC-62: 232.

tanespimycin + darinaparsin gave MeWo: 418; A101D: 224; WM3619: 171; RVH-421: 77.2; UACC-62: 242. For lestaurtinib + GSK650394 the values were MeWo: 199; A101D: 328; WM3619: 115; RVH-421: 89.6; UACC-62: 51.9. Results for darinaparsin + GSK650394 are MeWo: 190; A101D: 61.6; WM3619: 127; RVH-421: 323; UACC-62: 112. With tanespimycin + lestaurtinib the screen read MeWo: 354; A101D: 101; WM3619: 158; RVH-421: 220; UACC-62: 261. Results for GSK650394 + fingolimod are MeWo: 713; A101D: 7730; WM3619: 5210; RVH-421: 1180; UACC-62: 188.

Results for darinaparsin + SNS-314 are MeWo: 179; A101D: 87.1; WM3619: 133; RVH-421: 1190; UACC-62: 132. For SNS-314 + AS-252424 the values were MeWo: 205; A101D: 114; WM3619: 177; RVH-421: 71.4; UACC-62: 71.0. fingolimod + lestaurtinib gave MeWo: 205; A101D: 2600; WM3619: 3420; RVH-421: 204; UACC-62: 455. Results for SNS-314 + tanespimycin are MeWo: 111; A101D: 69.0; WM3619: 177; RVH-421: 55.3; UACC-62: 137. Results for GSK650394 + SNS-314 are MeWo: 148; A101D: 122; WM3619: 121; RVH-421: 148; UACC-62: 138.

Results for FK866 + AS-252424 are MeWo: 110; A101D: 125; WM3619: 100; RVH-421: 77.4; UACC-62: 170. For tanespimycin + fingolimod the values were MeWo: 375; A101D: 2630; WM3619: 988; RVH-421: 297; UACC-62: 247. Results for GSK650394 + tanespimycin are MeWo: 322; A101D: 423; WM3619: 119; RVH-421: 71.0; UACC-62: 205. With tanespimycin + AS-252424 the screen read MeWo: 333; A101D: 35.2; WM3619: 198; RVH-421: 136; UACC-62: 361. Results for fingolimod + FK866 are MeWo: 1900; A101D: 1980; WM3619: 3510; RVH-421: 3470; UACC-62: 290.

AS-252424 + darinaparsin gave MeWo: 151; A101D: 80.6; WM3619: 123; RVH-421: 188; UACC-62: 16.4. GSK650394 + FK866 gave MeWo: 90.5; A101D: 72.7; WM3619: 112; RVH-421: 306; UACC-62: 115. pazopanib + GSK650394 gave MeWo: 60.8; A101D: 150; WM3619: 130; RVH-421: 49.7; UACC-62: 131. With lestaurtinib + darinaparsin the screen read MeWo: 145; A101D: 84.4; WM3619: 96.2; RVH-421: 353; UACC-62: 79.8. With fingolimod + AS-252424 the screen read MeWo: 1890; A101D: 2520; WM3619: 4470; RVH-421: 5900; UACC-62: 338.

With pazopanib + tanespimycin the screen read MeWo: 420; A101D: 190; WM3619: 117; RVH-421: 124; UACC-62: 307.